Assay results published in article PMC5218534, “Structural and biochemical analyses of the DEAD-box ATPase Sub2 in association with THO or Yra1” (eLife, 2017).
Results are given in words; binding and its absence hold for the method and conditions named. Some binding calls cover weakened binding; strength is not graded here.

B1: Hpr1 (residues 1-603), subunit of THO* (domain or fragment, UniProt P17629 1-603)
chain: MSNTEELIQNSIGFLQKTFKALPVSFDSIRHEPLPSSMLHASVLNFEWEPLEKNISAIHDRDSLIDIILKRFIIDSMTNAIEDEEENNLEKGLLNSCIGLDFVYNSRFNRSNPASWGNTFFELFSTIIDLLNSPSTFLKFWPYAESRIEWFKMNTSVEPVSLGESNLISYKQPLYEKLRHWNDILAKLENNDILNTVKHYNMKYKLENFLSELLPINEESNFNRSASISALQESDNEWNRSARERESNRSSDVIFAADYNFVFYHLIICPIEFAFSDLEYKNDVDRSLSPLLDAILEIEENFYSKIKMNNRTRYSLEEALNTEYYANYDVMTPKLPVYMKHSNAMKMDRNEFWANLQNIKESDDYTLRPTIMDISLSNTTCLYKQLTQEDDDYYRKQFILQLCFTTNLIRNLISSDETRNFYKSCYLRENPLSDIDFENLDEVNKKRGLNLCSYICDNRVLKFYKIKDPDFYRVIRKLMSSDEKFTTAKIDGFKEFQNFRISKEKIPPPAFDETFKKFTFIKMGNKLINNVWKIPTGLDKIEQEVKKPEGVYEAAQAKWESKISSETSGGEAKDEIIRQWQTLRFLRSRYLFDFDKVNEKTGV
B2: Mft1 (residues 1-256), subunit of THO* (domain or fragment, UniProt P33441 1-256)
chain: MPLSQKQIDQVRTKVHYSEVDTPFNKYLDILGKVTKLTGSIINGTLSNDDSKIEKLTEQNISQLKESAHLRFLDLQSSIDTKKVADENWETCQQETLAKLENLKDKLPDIKSIHSKLLLRIGKLQGLYDSVQVINREVEGLSEGRTSLVVTRAEWEKELGTDLVKFLIEKNYLKLVDPGLKKDSSEERYRIYDDFSKGPKELESINASMKSDIENVRQEVSSYKEKWLRDAEIFGKITSIFKEELLKRDGLLNEAE
B3: Thp2 (residues 1-261), subunit of THO* (protein, UniProt O13539 1-261)
chain: MTKEEGRTYFESLCEEEQSLQESQTHLLNILDILSVLADPRSSDDLLTESLKKLPDLHRELINSSIRLRYDKYQTREAQLLEDTKTGRDVAAGVQNPKSISEYYSTFEHLNRDTLRYINLLKRLSVDLAKQVEVSDPSVTVYEMDKWVPSEKLQGILEQYCAPDTDIRGVDAQIKNYLDQIKMARAKFGLENKYSLKERLSTLTKELNHWRKEWDDIEMLMFGDDAHSMKKMIQKIDSLKSEINAPSESYPVDKEGDIVLE

Target: T1, Tho2 (residues 1-1207), subunit of THO* (S. cerevisiae) (UniProt P53552)
T1 sequence: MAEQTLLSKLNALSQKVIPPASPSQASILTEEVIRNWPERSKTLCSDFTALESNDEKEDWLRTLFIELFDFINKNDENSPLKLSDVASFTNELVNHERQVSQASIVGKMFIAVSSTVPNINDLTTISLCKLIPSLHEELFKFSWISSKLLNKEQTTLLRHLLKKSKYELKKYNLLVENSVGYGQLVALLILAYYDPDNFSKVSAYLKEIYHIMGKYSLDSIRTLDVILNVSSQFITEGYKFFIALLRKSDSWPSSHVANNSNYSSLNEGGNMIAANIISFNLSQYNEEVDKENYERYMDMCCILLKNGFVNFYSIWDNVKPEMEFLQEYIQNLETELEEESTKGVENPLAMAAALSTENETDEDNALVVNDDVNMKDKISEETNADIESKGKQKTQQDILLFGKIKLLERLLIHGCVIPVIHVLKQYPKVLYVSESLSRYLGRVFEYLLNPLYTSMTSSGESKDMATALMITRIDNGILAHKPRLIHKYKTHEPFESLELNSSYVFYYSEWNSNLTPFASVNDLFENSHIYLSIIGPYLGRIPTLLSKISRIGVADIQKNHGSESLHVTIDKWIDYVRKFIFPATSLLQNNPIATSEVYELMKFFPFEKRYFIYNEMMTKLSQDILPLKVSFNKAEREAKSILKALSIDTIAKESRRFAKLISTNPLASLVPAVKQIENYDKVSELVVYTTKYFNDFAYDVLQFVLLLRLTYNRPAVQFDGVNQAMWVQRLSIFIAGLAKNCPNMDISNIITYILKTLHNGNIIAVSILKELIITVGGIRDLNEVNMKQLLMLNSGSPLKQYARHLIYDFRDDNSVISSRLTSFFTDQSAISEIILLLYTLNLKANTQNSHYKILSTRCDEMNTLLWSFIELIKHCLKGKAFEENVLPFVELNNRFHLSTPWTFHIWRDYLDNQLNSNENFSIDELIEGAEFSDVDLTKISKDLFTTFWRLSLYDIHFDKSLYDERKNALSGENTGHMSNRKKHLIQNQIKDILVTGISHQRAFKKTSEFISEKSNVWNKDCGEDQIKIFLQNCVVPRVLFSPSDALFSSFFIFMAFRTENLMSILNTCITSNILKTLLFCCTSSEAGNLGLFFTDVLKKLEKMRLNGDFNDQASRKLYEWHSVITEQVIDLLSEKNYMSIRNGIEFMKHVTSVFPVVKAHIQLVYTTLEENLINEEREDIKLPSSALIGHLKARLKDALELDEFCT
Assay: co-purification of co-expressed subunits (Ni2+-affinity, mono Q, Superose 6 size exclusion); THO* subunits co-expressed in High-Five cells; Tho2 and Tex1 with N-terminal His tags, Hpr1, Mft1 and Thp2 untagged; 4 °C; SDS-PAGE with Coomassie stain of the purified complex

binding, binds:
B1, B2, B3
